Data: patent publication US8435756B2, “Anionic acid-labile surfactants and methods of use” (Protea Biosciences, Inc., priority 2008, dated 2013)

Assay: Protein electroelution from a polyacrylamide gel (GPR-800 system)
Conditions: 0.5% surfactant in Tris-glycine buffer; for presence of the protein in the collection reservoirs by MALDI-TOF mass spectrometry: after 15 min
Description: An embodiment of an anionic acid-labile surfactant (“AALS-6”) is used for protein electroelution from a polyacrylamide gel using Protea's GPR-800 system. A gel spot comprising the protein is placed in the gel loading reservoirs. A 0.5% anionic acid-labile surfactant is prepared by mixing the anionic acid-labile surfactant with Tris-glycine buffer. The mixture is placed in the gel loading reservoir to form a protein-surfactant complex (sample-surfactant complex). […] The mixture is used to transfer a protein from a coomassie stained gel into solution when voltage is applied to the sample. The movement of the protein-surfactant complex is tracked by the disappearance of the blue color of coomassie from the gel loading reservoirs and the emergence of the blue color of coomassie in the sample collection reservoirs. The movement of the protein-surfactant is complete after 15 min. The presence of the protein in the collection reservoirs is confirmed by MALDI-TOF mass spectrometry.
Similar experiments are performed with three (3) conventional anionic acid-labile surfactants. A 0.5% Proteamax, 0.5% Rapigest, and 0.5% PPS are prepared by mixing the surfactants with Tris-glycine buffer. […] No movement of the protein-coomassie complex is detectable for the 0.5% PPS surfactant.

SMILES	presence of the protein in the collection reservoirs by MALDI-TOF mass spectrometry	time after which movement of the protein-surfactant complex is complete (voltage applied)
CCCCCCOC(C)(COS(=O)(=O)[O-])OCCCCCC.[Na+] [AALS-6, sodium 2,2-bis(hexyloxy)propyl sulfate]	confirmed	15 min
CCCCCCCCCCC(OC(=O)NCCCS(=O)(=O)[O-])c1ccco1.[Na+] (stereo not shown) [Proteamax]	No protein is detected	
CCCCCCCCCCCC1(C)OCC(COCCCS(=O)(=O)[O-])O1.[Na+] (stereo not shown) [Rapigest]	No protein is detected	
